The list shows a part of the results.
target: OsWRKY34 (Oryza sativa, UniProt Q0JBA9 1-250); test: protein-binding microarray (RPBM); PBS, 2% BSA, 51.3 ng/ul salmon testes DNA, 50 uM zinc acetate, 200 nM TF, 25 C, 1 h; high values mean tight binding; settings: protein: recombinant; tags: N-terminal polyhistidine and DsRed monomer fusion (pET32a); label: CyDye5-dUTP incorporated in the synthesized complementary strand; 3' TTTTT single-stranded linker to array surface; dsDNA, one strand shown
In short: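 In PBS with 2% BSA, salmon testes DNA and 50 µM zinc acetate, 200 nM protein was incubated on a custom Agilent array at 25 °C for 1 h and then washed off. The array had been made double-stranded by primer extension with Cy5-dUTP and blocked with 2% BSA. The proteins were transcription factors fused N-terminally to polyhistidine and DsRed, expressed in E. coli BL21-CodonPlus and purified on Ni–NTA. The binding signal is per-feature fluorescence intensity (arbitrary units) from an Axon 4000B scanner.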

Chains of the proteins cited; added tags and fusions are not shown.
UniProt Q0JBA9, entry or part of it: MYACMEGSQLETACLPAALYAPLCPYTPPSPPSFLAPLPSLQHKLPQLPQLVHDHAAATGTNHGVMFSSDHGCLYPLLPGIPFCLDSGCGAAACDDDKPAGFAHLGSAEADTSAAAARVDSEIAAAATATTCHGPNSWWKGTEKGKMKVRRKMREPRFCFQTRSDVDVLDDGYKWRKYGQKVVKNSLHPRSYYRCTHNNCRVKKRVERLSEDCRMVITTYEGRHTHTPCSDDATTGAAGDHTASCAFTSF

Sequence | binding signal
GTCAGCTCGCTTTGTTTTCTGTTTTCTCGCTTTTTTTTCCCGGAGTCACCTAGTGCAG | 14300 fluorescence intensity (a.u.)
TTTCAATGTCAATGTACCCTGCTACTACTTGTGTTACTTCCGGAGTCACCTAGTGCAG | 9310 fluorescence intensity (a.u.)
GAAGTGGGTGAGGAGGGGTGATTGCTCGGGGACGCGTTGCCGGAGTCACCTAGTGCAG | 8550 fluorescence intensity (a.u.)
TAGGGTGTGTGTGCGTTTATAGGGATGAGTGTGCGCACGTCGGAGTCACCTAGTGCAG | 8950 fluorescence intensity (a.u.)
TGTGTTGCAGCTTACCTTTGTGTTTCTTGTTCTTCCATGCCGGAGTCACCTAGTGCAG | 10100 fluorescence intensity (a.u.)
GGGCTTTGACTTTTGATGTTTAAGTTTGATCAGCAAGTGACGGAGTCACCTAGTGCAG | 8470 fluorescence intensity (a.u.)
GCTAGCTGCTGTCTTGTGTTGTGTTGTGTTGTGTGGCATGCGGAGTCACCTAGTGCAG | 8220 fluorescence intensity (a.u.)
GTCAAACTAGCCACATCAGCGCCACATCAGTCAAAACCGCCGGAGTCACCTAGTGCAG | 8320 fluorescence intensity (a.u.)
ATTTTTTCTGTGTTTTGTAATTCTCTGTTTTACACTTCAACGGAGTCACCTAGTGCAG | 10000 fluorescence intensity (a.u.)
CCATCAATACAATCCCAACTGAGTTTATTGTATTTTTTTTCGGAGTCACCTAGTGCAG | 8050 fluorescence intensity (a.u.)
CCCGTTTTCACCCCTAGTTGTGGGCATTGTTTTTCTCATTCGGAGTCACCTAGTGCAG | 10500 fluorescence intensity (a.u.)
GTGTCAATTATTCGATGGGTGGGAATATTTATTTAACATTCGGAGTCACCTAGTGCAG | 9250 fluorescence intensity (a.u.)
TTCACTATTGGGTGTTTTTGTCTCGATTCACCTTCATCGTCGGAGTCACCTAGTGCAG | 8840 fluorescence intensity (a.u.)
ATCCCTAAACCACAATACCACATATGTCGATACCTCAACTCGGAGTCACCTAGTGCAG | 9100 fluorescence intensity (a.u.)
TTGGGGTCGAGATATCCGGTTTTGTGGTTTAGGGTCATGTCGGAGTCACCTAGTGCAG | 9090 fluorescence intensity (a.u.)
GAGCACGCCACCGCTGGCCGCCGTCCTTGGCTAGTCGACTCGGAGTCACCTAGTGCAG | 8060 fluorescence intensity (a.u.)
TGGGGTATCTAGTCAATCATACAATATTTTGTTTTGCTAACGGAGTCACCTAGTGCAG | 8460 fluorescence intensity (a.u.)
TCTCTCTCTCTCTCTCTCTCGTGCGGCGAGCCACCGGAATCGGAGTCACCTAGTGCAG | 8190 fluorescence intensity (a.u.)
TTGTTGGTTGCCCTATCAATCGGAACGTCCGCGTCAGACTCGGAGTCACCTAGTGCAG | 8680 fluorescence intensity (a.u.)
ATGATCAGCTGCTGTGGCCGTCCTTTCTTTGCGATGATGTCGGAGTCACCTAGTGCAG | 10600 fluorescence intensity (a.u.)
TCTTCTTATCTCAACAATTGATCCCTCAAAGGACCCTATACGGAGTCACCTAGTGCAG | 8200 fluorescence intensity (a.u.)

Sequence | binding signal
TGGCCGTTGTTGTTGTTGTTGTTGTTTATTAAAGCCGCCACGGAGTCACCTAGTGCAG | 8170 fluorescence intensity (a.u.)
CACCCCTTTTCTCCTACTGCTATTCTTTTATCCGGTTAACCGGAGTCACCTAGTGCAG | 11900 fluorescence intensity (a.u.)
TGTGTTGCGGTTTTTTCTATAAATTTATTCAAACTTGAAACGGAGTCACCTAGTGCAG | 8060 fluorescence intensity (a.u.)
GAACGGTCAAACATGTGTTAAAAAGTCAACGGTGTTAAACCGGAGTCACCTAGTGCAG | 9470 fluorescence intensity (a.u.)
CTCCCTTCTCACTTTCATCATCTCTCGTTCGGCCCATTTCCGGAGTCACCTAGTGCAG | 8220 fluorescence intensity (a.u.)
TTTCTCCGTCGTCTTCCTCTACTGGTTCTATGTCTTCTCACGGAGTCACCTAGTGCAG | 18800 fluorescence intensity (a.u.)
CACCCATTCGCCATCACCGCAAAATCTGCCGCCTCATTTACGGAGTCACCTAGTGCAG | 8620 fluorescence intensity (a.u.)
CACATTCTGACACACCCGCATCTTTTGAATATCTCTATATCGGAGTCACCTAGTGCAG | 8870 fluorescence intensity (a.u.)
CCACTAGCCAAGGCAGCCAGCCGCCCGGCCTCCCGCCGCCCGGAGTCACCTAGTGCAG | 14000 fluorescence intensity (a.u.)
GGGTTCGATTCCCGGCTGGTGCAATTTTCGTTTTTGTCACCGGAGTCACCTAGTGCAG | 8220 fluorescence intensity (a.u.)
AGGGACAGTTTGGTAAATTCGCATAGGAGTGCTTCTTATCCGGAGTCACCTAGTGCAG | 8700 fluorescence intensity (a.u.)
ACAGTTCCACATCAAAACAAACCTGCTCTGTTTTTTATTCCGGAGTCACCTAGTGCAG | 9200 fluorescence intensity (a.u.)
TCTGCGCCATCCACGCCAAGCGCGTCACCATCATGCCCAACGGAGTCACCTAGTGCAG | 10200 fluorescence intensity (a.u.)
GTGTTGTGTGTGTCCCTCTCTTGTGATCAGGTTGCATCTACGGAGTCACCTAGTGCAG | 8440 fluorescence intensity (a.u.)
TCCACGCCAGAATCCCTCAACCACGCCTCAGTTGCCTCTCCGGAGTCACCTAGTGCAG | 9790 fluorescence intensity (a.u.)
CCTCCCACCTTCCCGTTTCTTCTTTCTTGCGCCGCAAGAACGGAGTCACCTAGTGCAG | 8030 fluorescence intensity (a.u.)
TAGTTCGTGTTCATCCACAATGTTTTACTGCTGCCCTGGACGGAGTCACCTAGTGCAG | 8970 fluorescence intensity (a.u.)
GGTTTGGGTTCCTCTCTCGTCTCGTCTGTTTTGTTTTCCCCGGAGTCACCTAGTGCAG | 21900 fluorescence intensity (a.u.)
ATCCGAAACTCACGACACCTCTCTCTCTCTCTCCCAGCTGCGGAGTCACCTAGTGCAG | 8200 fluorescence intensity (a.u.)
CGCGCATATATCTTCTCCCCGCTCACCACAGCCATTCGTCCGGAGTCACCTAGTGCAG | 9700 fluorescence intensity (a.u.)
GCTAACTAGCCTGTCTTTTCTTGTGTCCTTGGGCAATTCTCGGAGTCACCTAGTGCAG | 8990 fluorescence intensity (a.u.)

Sequence | binding signal
GCTTTAACTATTACTCCCTTCGTTTCAGTTTATAAGACGTCGGAGTCACCTAGTGCAG | 8110 fluorescence intensity (a.u.)
CAAGTGTGCCTTTGTCTCTTACCAGCCAGCCATTATTCAACGGAGTCACCTAGTGCAG | 8200 fluorescence intensity (a.u.)
TCTTTCCCACGACCACACATAAGCTTCTCCCTCGATCTCTCGGAGTCACCTAGTGCAG | 8750 fluorescence intensity (a.u.)
CTCCGACCTTCCGCTGCTCGTTTTCCTCGTCGCCACTCCCCGGAGTCACCTAGTGCAG | 9180 fluorescence intensity (a.u.)
GGTGGGTCCGTCCGAGTTTCATTTTTTACTACTACCTTTTCGGAGTCACCTAGTGCAG | 11000 fluorescence intensity (a.u.)
TCGCCACCGCATCCCATATCCCTCCGCCGCGCGCGGCATGCGGAGTCACCTAGTGCAG | 9630 fluorescence intensity (a.u.)
TGCATGTATTTGGTGGAGGGTTTTGTGGATTGGGTTCATGCGGAGTCACCTAGTGCAG | 13200 fluorescence intensity (a.u.)
GGCTCTGCACGCTCACCACCTCATCTCTCGTTCTTACACTCGGAGTCACCTAGTGCAG | 8350 fluorescence intensity (a.u.)
CTTCTTTCTTTGACCTTTTATTTTGCCAAATTACAGATGCCGGAGTCACCTAGTGCAG | 9250 fluorescence intensity (a.u.)
ATATATGTCCATGGAGGAGGGTGAGGGGAGTAGTAGGGCGCGGAGTCACCTAGTGCAG | 9340 fluorescence intensity (a.u.)
TCTGCAATAGGGTAACTTCACGATCTCAGCTGTCACTCACCGGAGTCACCTAGTGCAG | 8660 fluorescence intensity (a.u.)
TTAAATGTTCGATGTGATAGGGTAAAAATTTTTGGGCGGGCGGAGTCACCTAGTGCAG | 9660 fluorescence intensity (a.u.)
CATATCTTTGACCATTCGTCTTATTTAAAAACTTTTATGACGGAGTCACCTAGTGCAG | 8270 fluorescence intensity (a.u.)
CATTAACTACATCCAGTTATCAGCCCTGTCGTTTCTCTGCCGGAGTCACCTAGTGCAG | 8650 fluorescence intensity (a.u.)
TTTTGGGAATTGGAATTGCATATAGACGGTTTGATTTCTTCGGAGTCACCTAGTGCAG | 9260 fluorescence intensity (a.u.)
GATGGACCCTCAACCAGCTAGCACACGCAGCTGACACACACGGAGTCACCTAGTGCAG | 8210 fluorescence intensity (a.u.)
CATCCGTCATGCCTCACGACAAACCGCGGACGACGCGCACCGGAGTCACCTAGTGCAG | 8230 fluorescence intensity (a.u.)
TTTCACGTCCAATATTTGACTGTTTGTCTTATGTGAAATTCGGAGTCACCTAGTGCAG | 9640 fluorescence intensity (a.u.)
ACATATGAGCTACTTCTCTTGCATATTTGTTTCTTTGTGTCGGAGTCACCTAGTGCAG | 10500 fluorescence intensity (a.u.)
TATGTAGACGACTCGAGTGCTTTTTCCCAACATTCATTCCCGGAGTCACCTAGTGCAG | 8180 fluorescence intensity (a.u.)
GCCCATTAATTTTAGTCGGTGTGGCTGGTTTGTTCACTGACGGAGTCACCTAGTGCAG | 8540 fluorescence intensity (a.u.)

Sequence | binding signal
TCTATTTTTTGAGACATATGTAGTATTTACCAGCTCTTTTCGGAGTCACCTAGTGCAG | 9090 fluorescence intensity (a.u.)
AACCCACTTCGCTTTGGATCGGAACACAGCGCGCCCGACACGGAGTCACCTAGTGCAG | 9150 fluorescence intensity (a.u.)
GATTGTTGGGAAACGAGTTTTCCGCCCGCTTCTCTGGTTTCGGAGTCACCTAGTGCAG | 8800 fluorescence intensity (a.u.)
ACCGTTGACTGGAACTCGTACGGATACAGCGGGTAGTTGCCGGAGTCACCTAGTGCAG | 10300 fluorescence intensity (a.u.)
CCGCCCCATCACCATGCCGCCTCGGGCGAGCTCGCCCGCCCGGAGTCACCTAGTGCAG | 8700 fluorescence intensity (a.u.)
TAATAAGTGAGACCAAATATTGATTGTGTAGTATATATTTCGGAGTCACCTAGTGCAG | 8670 fluorescence intensity (a.u.)
TGGCCACATCTTTTCTAGCCTTCTAGCTGATATCAACCTCCGGAGTCACCTAGTGCAG | 8790 fluorescence intensity (a.u.)
CTTCTCGTACAACCCGCTCGATTCTTCGTGTTCGGTTCCACGGAGTCACCTAGTGCAG | 11900 fluorescence intensity (a.u.)
CGCGGAACGCACGCTACCGCTCCCAAGTCCGAAACCTCCGCGGAGTCACCTAGTGCAG | 9050 fluorescence intensity (a.u.)
ACATGAGCCCCATATATCAGCGGTCAACTCTTTTTTTCCTCGGAGTCACCTAGTGCAG | 10600 fluorescence intensity (a.u.)
TTTTCTTTGCAAAGTTTTAGGTATTCCAATATAGGTACTTCGGAGTCACCTAGTGCAG | 8680 fluorescence intensity (a.u.)
CTGGTGCTAATGTTGATCTGCTGGCCTGCCGCTGCTGCTTCGGAGTCACCTAGTGCAG | 8580 fluorescence intensity (a.u.)
TTTTAACCTCTTGAAAGTTTTTCTTTGTGTCTATCTCTCTCGGAGTCACCTAGTGCAG | 8230 fluorescence intensity (a.u.)
GCAATTGGAGGGGATGGAAGAAGATGATTCGCTTTTTTTTCGGAGTCACCTAGTGCAG | 9740 fluorescence intensity (a.u.)
TGCCAATGCCAGGGTTTTCGTCGGTTTTACATAAATTAACCGGAGTCACCTAGTGCAG | 8500 fluorescence intensity (a.u.)
ATTTGATCCTCTTTTTTCAACTTTGCTTATTTGACCCTTCCGGAGTCACCTAGTGCAG | 11100 fluorescence intensity (a.u.)
GCCGCCGCCTCGCTCCCCATGGCGTCCGTACACTCCGGCGCGGAGTCACCTAGTGCAG | 10300 fluorescence intensity (a.u.)
TATATCACATCCGGTTTTAGATTCGTTTTTTATAGGACGGCGGAGTCACCTAGTGCAG | 8050 fluorescence intensity (a.u.)
ATCTCAGCCATCCGTTTTTATTAATGACCTAATCTCCAACCGGAGTCACCTAGTGCAG | 9090 fluorescence intensity (a.u.)
CGGTCGCGGAGTTCACATCCCTCGCCCCGCCGCGGCGAATCGGAGTCACCTAGTGCAG | 10200 fluorescence intensity (a.u.)
CATGATTTCTCGGGGTCTCGTTCTCGCCGGGTCGTCTCGACGGAGTCACCTAGTGCAG | 8780 fluorescence intensity (a.u.)

Another view of part of the listing above.
Sequence	binding signal
CCGCCCCATCACCATGCCGCCTCGGGCGAGCTCGCCCGCCCGGAGTCACCTAGTGCAG	8700 fluorescence intensity (a.u.)
TAATAAGTGAGACCAAATATTGATTGTGTAGTATATATTTCGGAGTCACCTAGTGCAG	8670 fluorescence intensity (a.u.)
TGGCCACATCTTTTCTAGCCTTCTAGCTGATATCAACCTCCGGAGTCACCTAGTGCAG	8790 fluorescence intensity (a.u.)
CTTCTCGTACAACCCGCTCGATTCTTCGTGTTCGGTTCCACGGAGTCACCTAGTGCAG	11900 fluorescence intensity (a.u.)
CGCGGAACGCACGCTACCGCTCCCAAGTCCGAAACCTCCGCGGAGTCACCTAGTGCAG	9050 fluorescence intensity (a.u.)
ACATGAGCCCCATATATCAGCGGTCAACTCTTTTTTTCCTCGGAGTCACCTAGTGCAG	10600 fluorescence intensity (a.u.)
TTTTCTTTGCAAAGTTTTAGGTATTCCAATATAGGTACTTCGGAGTCACCTAGTGCAG	8680 fluorescence intensity (a.u.)
CTGGTGCTAATGTTGATCTGCTGGCCTGCCGCTGCTGCTTCGGAGTCACCTAGTGCAG	8580 fluorescence intensity (a.u.)
TTTTAACCTCTTGAAAGTTTTTCTTTGTGTCTATCTCTCTCGGAGTCACCTAGTGCAG	8230 fluorescence intensity (a.u.)
GCAATTGGAGGGGATGGAAGAAGATGATTCGCTTTTTTTTCGGAGTCACCTAGTGCAG	9740 fluorescence intensity (a.u.)
TGCCAATGCCAGGGTTTTCGTCGGTTTTACATAAATTAACCGGAGTCACCTAGTGCAG	8500 fluorescence intensity (a.u.)
ATTTGATCCTCTTTTTTCAACTTTGCTTATTTGACCCTTCCGGAGTCACCTAGTGCAG	11100 fluorescence intensity (a.u.)
GCCGCCGCCTCGCTCCCCATGGCGTCCGTACACTCCGGCGCGGAGTCACCTAGTGCAG	10300 fluorescence intensity (a.u.)
